Results are given in words; binding and its absence hold for the method and conditions named. Binding seen in cells or lysates may run through a third protein. A yes stands for co-enrichment or nearness to the bait. Other partners may have been found. For some of these results: No binding means not detected with the bait.
Assays:
Experiment in all cases: proximity labelling; subcompartment BioID2 fusions (AQP4, EZR, GLT1, KIR4.1, CX43) in striatal astrocytes in vivo; biotin 24 mg/kg for 7 days; NeutrAvidin pull-down, LC-MS/MS; log2(FC) > 1 and FDR < 0.05 versus the same protein fused to GFP
KIR4.1-BioID2 = target: T1, KIR4.1-BioID2 (UniProt Q9JM63)
T1 sequence: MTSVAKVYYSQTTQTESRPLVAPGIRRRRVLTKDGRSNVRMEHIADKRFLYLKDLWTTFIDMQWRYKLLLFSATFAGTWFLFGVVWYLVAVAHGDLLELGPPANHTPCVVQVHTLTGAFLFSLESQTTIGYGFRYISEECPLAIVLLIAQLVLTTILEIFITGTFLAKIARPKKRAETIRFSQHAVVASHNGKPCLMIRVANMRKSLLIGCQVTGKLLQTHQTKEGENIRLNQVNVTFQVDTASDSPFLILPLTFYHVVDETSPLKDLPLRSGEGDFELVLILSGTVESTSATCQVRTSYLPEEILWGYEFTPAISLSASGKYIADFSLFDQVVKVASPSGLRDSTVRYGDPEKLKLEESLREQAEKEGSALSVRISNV

By UniProt entry, the sequences of proteins in these tests, tags left out.
UniProt P23242: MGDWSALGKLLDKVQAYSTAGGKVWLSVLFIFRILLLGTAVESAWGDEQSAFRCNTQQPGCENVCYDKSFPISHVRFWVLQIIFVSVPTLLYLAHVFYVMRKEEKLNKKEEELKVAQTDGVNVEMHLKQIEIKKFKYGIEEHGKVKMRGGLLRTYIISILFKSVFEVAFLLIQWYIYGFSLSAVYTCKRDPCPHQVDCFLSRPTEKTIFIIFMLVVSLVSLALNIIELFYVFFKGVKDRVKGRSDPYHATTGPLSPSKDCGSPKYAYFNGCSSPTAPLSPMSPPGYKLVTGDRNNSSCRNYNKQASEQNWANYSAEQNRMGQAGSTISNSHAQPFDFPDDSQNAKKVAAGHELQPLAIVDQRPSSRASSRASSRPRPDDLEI
UniProt P26040: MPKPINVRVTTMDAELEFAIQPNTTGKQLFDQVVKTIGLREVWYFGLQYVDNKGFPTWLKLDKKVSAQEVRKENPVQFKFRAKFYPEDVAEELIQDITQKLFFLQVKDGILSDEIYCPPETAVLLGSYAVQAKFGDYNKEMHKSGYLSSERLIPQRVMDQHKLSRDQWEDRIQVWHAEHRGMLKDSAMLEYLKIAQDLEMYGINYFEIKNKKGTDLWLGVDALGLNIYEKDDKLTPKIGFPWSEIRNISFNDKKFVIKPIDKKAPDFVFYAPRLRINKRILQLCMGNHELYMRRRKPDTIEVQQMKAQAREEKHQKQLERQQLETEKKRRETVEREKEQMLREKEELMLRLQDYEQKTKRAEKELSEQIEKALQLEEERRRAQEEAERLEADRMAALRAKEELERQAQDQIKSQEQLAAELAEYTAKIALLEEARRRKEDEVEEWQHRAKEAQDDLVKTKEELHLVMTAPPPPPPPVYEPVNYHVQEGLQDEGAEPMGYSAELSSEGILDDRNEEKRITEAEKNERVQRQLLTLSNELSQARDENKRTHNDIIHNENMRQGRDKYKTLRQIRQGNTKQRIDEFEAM
UniProt P55088: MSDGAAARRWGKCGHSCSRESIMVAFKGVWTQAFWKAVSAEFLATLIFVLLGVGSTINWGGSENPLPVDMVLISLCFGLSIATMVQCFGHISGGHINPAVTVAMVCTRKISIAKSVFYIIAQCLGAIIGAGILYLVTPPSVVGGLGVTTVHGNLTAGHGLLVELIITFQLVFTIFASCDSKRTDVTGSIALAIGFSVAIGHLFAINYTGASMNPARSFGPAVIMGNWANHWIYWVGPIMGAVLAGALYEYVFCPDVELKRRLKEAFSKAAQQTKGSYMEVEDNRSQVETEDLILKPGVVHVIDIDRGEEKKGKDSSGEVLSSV

CX43–BioID2 = CX43–BioID2 (UniProt P23242)
EZR–BioID2 = EZR–BioID2 (UniProt P26040)
AQP4–BioID2 = AQP4–BioID2 (UniProt P55088)

binding (KIR4.1-BioID2): no binding
binding (CX43–BioID2): no binding
binding (EZR–BioID2): binds
binding (AQP4–BioID2): no binding
B1: SAPAP3 (endogenous) (protein, UniProt Q6PFD5 1-977)
chain: MRGYHGDRGSHPRPARFADQQHMDVGPAARAPYLLGSREAFSTEPRFCAPRAGLGHLSPEGPLSLSEGPSSVGPEGGPGGVGAGGGSSTFPRMYPGQGPFDTCEDCVGHPQGKGATRLPPTLLDQFEKQLPVQQDGFHTLPYQRGPAGPGPGPGSGAAPEARSESPSRIRHLVHSVQKLFAKSHSLEAPGKRDYNGPKADGRGSSGGDSYSGPGSGGTPTSHHHHHHHHHHHHQSRHGKRSKSKDRKGDGRHQTKATGWWSSDDNLDSDSGFLGGRPPGEPGGPFCLDAPDGSYRDLSFKGRSGGSEGRCLACTGMSMSLDGQSVKRSAWHTMMVSQGRDGYPGAGPGKGLLGPETKAKARTYHYLQVPQDDWGGYPTGGKDGEIPCRRMRSGSYIKAMGDEESGDSDGSPKTSPKALARRFASRRSSSVDTARINCCVPPRIHPRSSIPGYSRSLTTGQLSEEFNQQLEAVCGSVFGELESQAVDALDLPGCFRMRSHSYLRAIQAGCSQDDDCLPLLAAPASVSGRPGSSFNFRKAPPPIPPGSQAPPRISITAQSSTDSAHESFTAAEGPARRCSSADGLDGPTMGARTLELAPVPPRASPKPPTLIIKTIPGREELRSLARQRKWRPSIGVQVETISDSDTENRSRREFHSIGVQVEEDKRRARFKRSNSVTAGVQADLELEGLAGLATVATEDKALQFGRSFQRHASEPQPGPRAPTYSVFRTVHTQGQWAYREGYPLPYEPPATDGSPGPTPVPAPGPGSGRRDSWMERGSRSLPDSGRTSPCPRDGEWFIKMLRAEVEKLEHWCQQMEREAEDYELPEEILEKIRSAVGSTQLLLSQKVQQFFRLCQQSLDPTAFPVPTFQDLAGFWDLLQLSIEDVTLKFLELQQLKANSWKLLEPKEEKKVPPPIPKKPSRGRGVPVKERSLDSVDRQRQEARKRLLAAKRAASFRHSSATESADSIEIYIPEAQTRL
